Paper PMC12062478, “Screening herbal and natural product libraries to aid discovery of novel allosteric modulators of human P2X7” (Purinergic Signalling, 2024)

tested on: Calf thymus DNA; test: Cell-free DNA YO-PRO-1 fluorescence interference assay; conditions: calf thymus DNA 1 µg/mL, 100 nM–100 µM compound

Molecule | Interference with YO-PRO-1 fluorescence
O=C(O[C@@H]1Cc2c(O)cc(O)cc2O[C@@H]1c1ccc(O)c(O)c1)c1cc(O)c(O)c(O)c1 [ECG, epicatechin gallate] | displayed interference
O=C1CSC(=O)N1C(CCc1ccncc1)COc1ccc(-c2cccc([N+](=O)[O-])c2)cc1 (centres unmarked) [AZ11645373, reference compound] | no interfering effect
O=c1c(-c2ccc(O)cc2)coc2cc(O)cc(O)c12 [Genistein] | displayed interference
COc1c2ccoc2cc2oc(=O)ccc12 [Bergapten] | no interference
O=c1c(O)c(-c2ccc(O)cc2)oc2cc(O)cc(O)c12 [Kampferol, kaempferol] | displayed interference
O=c1c(O)c(-c2ccc(O)c(O)c2)oc2cc(O)cc(O)c12 [Quercetin] | displayed interference
Cc1cc(O)c2c(c1)C(=O)c1cc(O)cc(O)c1C2=O [Emodin] | displayed interference
O=C(O[C@@H]1Cc2c(O)cc(O)cc2O[C@@H]1c1cc(O)c(O)c(O)c1)c1cc(O)c(O)c(O)c1 [EGCG, epigallocatechin gallate] | displayed interference
COc1ccc2cc3[n+](cc2c1OC)CCc1cc2c(cc1-3)OCO2 [Berberine] | no interference
Methyl syringate | no interference
COc1cc2ccc(=O)oc2cc1O [Scopoletin] | no interference
